Test results taken from PubChem BioAssay (NCATS).
The shares of active, inactive and inconclusive entries below differ from those in the screen. For part of these data: Potencies beside an inconclusive call are fits to weak or partial responses and may not hold up. For part of these data: A note “side channel” means that the fit belongs to a control or component signal, not to the main read-out. Calls of active or inactive are those of the source. Unless noted, the call rests on the fitted dose curve.

Chains of the proteins cited; added tags and fusions are not shown. Lines headed by an entry give the natural chain unless they say otherwise; changes in a name come on top.
UniProt P10275: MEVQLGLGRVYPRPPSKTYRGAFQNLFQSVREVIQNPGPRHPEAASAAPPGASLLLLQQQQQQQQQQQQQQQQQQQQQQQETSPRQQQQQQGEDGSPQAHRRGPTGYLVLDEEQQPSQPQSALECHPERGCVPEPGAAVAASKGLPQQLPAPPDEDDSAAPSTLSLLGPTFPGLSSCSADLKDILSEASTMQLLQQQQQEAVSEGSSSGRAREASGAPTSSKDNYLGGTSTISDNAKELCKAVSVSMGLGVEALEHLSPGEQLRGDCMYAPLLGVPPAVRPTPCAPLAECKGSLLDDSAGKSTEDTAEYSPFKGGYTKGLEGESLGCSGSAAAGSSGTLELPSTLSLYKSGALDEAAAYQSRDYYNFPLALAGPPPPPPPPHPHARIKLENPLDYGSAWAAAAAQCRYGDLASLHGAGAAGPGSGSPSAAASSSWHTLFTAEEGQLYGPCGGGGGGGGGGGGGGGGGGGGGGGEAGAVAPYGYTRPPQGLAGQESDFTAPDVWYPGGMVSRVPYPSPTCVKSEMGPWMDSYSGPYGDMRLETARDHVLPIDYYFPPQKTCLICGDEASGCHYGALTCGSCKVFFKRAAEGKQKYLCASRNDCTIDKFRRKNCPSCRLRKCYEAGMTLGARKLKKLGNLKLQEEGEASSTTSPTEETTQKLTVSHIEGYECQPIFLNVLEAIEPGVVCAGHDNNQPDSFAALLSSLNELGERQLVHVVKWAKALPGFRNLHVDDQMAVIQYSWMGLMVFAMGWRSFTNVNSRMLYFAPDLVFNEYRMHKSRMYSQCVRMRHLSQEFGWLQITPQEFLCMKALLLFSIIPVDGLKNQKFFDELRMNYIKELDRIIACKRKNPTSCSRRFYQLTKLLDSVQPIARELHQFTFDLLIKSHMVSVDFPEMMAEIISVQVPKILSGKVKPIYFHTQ
UniProt P11473: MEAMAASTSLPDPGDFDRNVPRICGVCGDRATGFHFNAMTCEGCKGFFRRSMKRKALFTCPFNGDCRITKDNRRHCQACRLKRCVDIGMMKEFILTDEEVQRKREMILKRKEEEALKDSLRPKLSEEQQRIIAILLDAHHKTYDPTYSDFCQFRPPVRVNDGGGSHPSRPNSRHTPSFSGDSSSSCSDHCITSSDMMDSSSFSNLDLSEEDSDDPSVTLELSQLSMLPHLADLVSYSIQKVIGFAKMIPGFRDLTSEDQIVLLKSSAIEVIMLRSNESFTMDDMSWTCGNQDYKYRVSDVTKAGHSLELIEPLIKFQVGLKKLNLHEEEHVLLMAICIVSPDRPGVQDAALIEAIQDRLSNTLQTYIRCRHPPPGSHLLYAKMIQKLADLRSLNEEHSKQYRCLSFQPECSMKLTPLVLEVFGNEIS
UniProt P19793: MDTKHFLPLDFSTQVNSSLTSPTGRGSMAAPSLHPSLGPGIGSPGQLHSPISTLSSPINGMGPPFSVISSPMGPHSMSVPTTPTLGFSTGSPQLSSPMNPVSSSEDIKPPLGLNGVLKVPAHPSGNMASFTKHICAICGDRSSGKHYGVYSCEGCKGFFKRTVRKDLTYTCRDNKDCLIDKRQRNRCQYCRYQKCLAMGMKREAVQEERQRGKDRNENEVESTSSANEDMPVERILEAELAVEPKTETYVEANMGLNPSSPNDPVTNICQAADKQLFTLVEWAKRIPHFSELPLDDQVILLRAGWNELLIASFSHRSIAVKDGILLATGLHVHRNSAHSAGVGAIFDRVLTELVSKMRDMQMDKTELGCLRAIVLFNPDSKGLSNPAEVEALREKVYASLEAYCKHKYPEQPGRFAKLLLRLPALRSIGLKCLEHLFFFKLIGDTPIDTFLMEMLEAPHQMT
UniProt P08684, whole entry, looked up: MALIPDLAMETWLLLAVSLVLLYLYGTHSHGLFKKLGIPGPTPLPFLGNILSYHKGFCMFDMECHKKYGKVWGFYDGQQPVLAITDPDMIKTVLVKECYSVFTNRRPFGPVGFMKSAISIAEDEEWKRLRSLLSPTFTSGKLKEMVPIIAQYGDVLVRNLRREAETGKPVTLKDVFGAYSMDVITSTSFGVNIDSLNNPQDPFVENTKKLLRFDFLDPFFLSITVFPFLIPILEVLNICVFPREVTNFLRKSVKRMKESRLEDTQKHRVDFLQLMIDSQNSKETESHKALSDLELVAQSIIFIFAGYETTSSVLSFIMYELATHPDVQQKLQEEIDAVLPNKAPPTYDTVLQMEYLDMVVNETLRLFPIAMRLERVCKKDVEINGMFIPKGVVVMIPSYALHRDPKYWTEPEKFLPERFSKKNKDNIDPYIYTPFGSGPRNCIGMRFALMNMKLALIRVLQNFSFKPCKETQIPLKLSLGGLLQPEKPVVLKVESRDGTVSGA
UniProt P10828: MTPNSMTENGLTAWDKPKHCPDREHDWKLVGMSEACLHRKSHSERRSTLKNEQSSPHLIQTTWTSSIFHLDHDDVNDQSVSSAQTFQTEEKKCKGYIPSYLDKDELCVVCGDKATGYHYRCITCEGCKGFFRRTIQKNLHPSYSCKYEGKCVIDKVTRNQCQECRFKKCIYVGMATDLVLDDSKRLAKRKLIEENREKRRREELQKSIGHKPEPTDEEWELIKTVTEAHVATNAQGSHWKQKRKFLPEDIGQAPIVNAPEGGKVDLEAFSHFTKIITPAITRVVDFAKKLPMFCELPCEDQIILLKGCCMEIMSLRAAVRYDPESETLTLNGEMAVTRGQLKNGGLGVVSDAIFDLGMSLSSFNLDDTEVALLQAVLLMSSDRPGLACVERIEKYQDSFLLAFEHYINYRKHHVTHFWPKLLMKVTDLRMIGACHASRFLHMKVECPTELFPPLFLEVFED
UniProt Q03181: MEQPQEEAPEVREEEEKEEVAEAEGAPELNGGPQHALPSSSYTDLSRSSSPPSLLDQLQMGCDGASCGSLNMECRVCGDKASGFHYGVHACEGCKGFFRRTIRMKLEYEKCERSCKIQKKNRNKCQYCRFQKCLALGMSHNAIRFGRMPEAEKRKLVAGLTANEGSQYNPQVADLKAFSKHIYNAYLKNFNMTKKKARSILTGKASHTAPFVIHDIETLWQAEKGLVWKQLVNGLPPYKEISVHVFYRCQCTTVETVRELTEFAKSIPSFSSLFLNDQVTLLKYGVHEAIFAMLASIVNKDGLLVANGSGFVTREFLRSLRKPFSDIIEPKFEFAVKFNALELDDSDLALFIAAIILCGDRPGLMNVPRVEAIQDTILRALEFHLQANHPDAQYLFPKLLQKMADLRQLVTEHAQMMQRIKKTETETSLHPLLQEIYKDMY

Tests used:
[1] = MultiTox-Fluor Cytotoxicity Assay - LYMP1-001 - Live Cells (AID 947; active means well fitted curve in the direction sought with a large enough effect; inconclusive means small, poorly fitted or top-dose-only effect, or another doubt; inactive means no such curve, though single readings can be large; an effect the other way counts as inactive or inconclusive; further: potency means the concentration at half of the fitted maximal effect)
[2] = biological target: Androgen receptor (Homo sapiens) (UniProt P10275); assay: qHTS assay for small molecule antagonists of androgen receptor signaling (AID 588516; active means well fitted curve in the direction sought with a large enough effect in the signal ratio, with a control signal flat, not every such curve was filed as active; inconclusive means small, poorly fitted or top-dose-only effect, or effect the other way, or a change in a side signal; inactive means no such curve, though single readings can be large or run the other way; the % refers to the signal ratio; further: on the % scale 0 is the no-effect control and ±100 the full control effect); conditions: AR-UAS-bla HEK293, beta-lactamase ratio, antagonist mode, 16 h; activity change, negative = inhibition: at 76.8 µM (top of the series)
Summary of the method: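 Antagonist mode: inhibition of R1881-stimulated (10 nM final) bla reporter in GeneBLAzer AR HEK 293 cells, 16 h at 37C, compounds titrated. IC50 and efficacy from Hill-equation fits of 405/460–530 nm FRET ratios.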

[3] = biological target: Vitamin D3 receptor (Homo sapiens) (UniProt P11473); assay: qHTS assay for small molecule antagonists of vitamin D receptor signaling (AID 588541); conditions: HEK293T VDR-UAS-bla, beta-lactamase ratio, antagonist mode; activity change, negative = inhibition: at 76.7 µM (top of the series);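 further: receptor activated by calcitriol during compound treatment; on the % scale 0 is the no-effect control and ±100 the full control effect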
[4] = biological target: Retinoic acid receptor RXR-alpha (Homo sapiens) (UniProt P19793); assay: qHTS assay for small molecule agonists of retinoid X receptor alpha signaling (AID 588544); conditions: HEK293T RXRa-UAS-bla, beta-lactamase reporter, 18 h; activation: at 76.7 µM (top of the series); further: potency means the concentration at half of the fitted maximal effect;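 on activation: 0% = DMSO basal wells and 100% = reference agonist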
[5] = qHTS assay to identify small molecules that stimulate interleukin-8 (IL-8) secretion (AID 651758; active means well fitted activation curve with a large enough effect in the signal ratio; inconclusive means small, poorly fitted or top-dose-only effect, or effect the other way, or a change in a side signal; the % refers to the signal ratio; further: 0% is about no effect); conditions: HTRF ratio (665/615); activation: at 92.2 µM (top of the series)
Summary of the method: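 Compounds are added to THP-1 cells (2000 per well) and left 16 hrs at 37 C. A labeled anti-IL-8 antibody pair is then added, and IL-8 secretion is measured by time-resolved FRET after 1-3 hrs at room temperature.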

[6] = qHTS assay for small molecule antagonists of the retinoid-related orphan receptor gamma (ROR-gamma) signaling pathway - cell viability counter screen (AID 720652; active means well fitted curve in the direction sought with a large enough effect in the repeat runs; inconclusive means weak or mixed curves; inactive means no such curve, though single readings can be large; an effect the other way counts as inactive or inconclusive;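 further: compound exposure lasted 16 hr before ATP read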; further: potency means the concentration at half of the fitted maximal effect)
Summary of the method: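 Cytotoxicity counter screen: intracellular ATP (CellTiter-Glo luminescence) measured in the doxycycline-induced CHO RORE-luciferase reporter line after 16 hr compound exposure at 37 C, 5% CO2.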

[7] = biological target: Cytochrome P450 3A4 (Homo sapiens) (UniProt P08684); assay: qHTS Assay for Inhibitors and Substrates of Cytochrome P450 3A4 (AID 884; active means well fitted curve in the direction sought with a large enough effect; inconclusive means small, poorly fitted or top-dose-only effect, or another doubt; inactive means no such curve, though single readings can be large; an effect the other way counts as inactive or inconclusive; further: on the % scale 0 is the no-effect control and ±100 the full control effect; nearly all actives have a fitted effect of over 50% in size); conditions: recombinant CYP3A4, Luciferin-PPXE luminescence; activity change, negative = inhibition: at 57.1 µM (top of the series) unless noted
Summary of the method: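 Luminescent readout of luciferin produced by CYP3A4 (20 nM) dealkylation of Luciferin-PPXE, 25 uM (its KM). NADPH-driven reaction ran 60 min at RT after 10 min compound preincubation; data scaled to 57 uM ketoconazole as 100% inhibition.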

[8] = Cell Viability - LYMP2-002 (AID 977; active means well fitted curve in the direction sought with a large enough effect; inconclusive means small, poorly fitted or top-dose-only effect, or another doubt; inactive means no such curve, though single readings can be large; an effect the other way counts as inactive or inconclusive;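 further: compound exposure lasted 24 h at 37 °C; plate controls were DMSO only for no effect and 92 µM tetraoctylammonium bromide for full effect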)
Summary of the method: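 Human lymphoblastoid cells, 2500/well, complete medium; 5 h 37 C settle; compound 24 h 37 C; CellTiter-Glo, 30 min RT; luminescence. Decrease in ATP = cytotoxicity; AC50 via Hill equation.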

[9] = Cell Viability - LYMP2-026 (AID 989; active means well fitted curve in the direction sought with a large enough effect; inconclusive means small, poorly fitted or top-dose-only effect, or another doubt; inactive means no such curve, though single readings can be large; an effect the other way counts as inactive or inconclusive; further: on the % scale 0 is the no-effect control and ±100 the full control effect; nearly all actives have a fitted effect of over 50% in size)
Summary of the method: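 Cytotoxicity read as ATP-dependent luminescence (CellTiter-Glo, 30 min room temperature) after 24 h compound treatment at 37 C. LYMP2-026 lymphoblastoid line seeded at 2500 cells/well; AC50 derived by standard Hill equation.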

[10] = biological target: Glucocorticoid receptor (Homo sapiens) (UniProt P04150); assay: qHTS assay for small molecule agonists of glucocorticoid receptor signaling (AID 588532; active means well fitted curve in the direction sought with a large enough effect in the signal ratio, with a control signal flat; inconclusive means small, poorly fitted or top-dose-only effect, or a change in a side signal; inactive means no such curve, though single readings can be large or run the other way; the % refers to the signal ratio; further: potency means the concentration at half of the fitted maximal effect;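 on activation: 100% = dexamethasone at 0.1 µM and 0% = DMSO only wells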); conditions: HeLa MMTV-bla, beta-lactamase ratio, agonist, 18 h; activation: active compounds read high, percent of dexamethasone control, DMSO zero
Summary of the method: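 MMTV-bla HeLa beta-lactamase reporter cells in 1% charcoal/dextran FBS medium, compounds up to 92 uM for 18 h at 37 C, CCF4 readout; normalized to 0.1 uM dexamethasone (100%), EC50 and efficacy from Hill fits.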

[11] = biological target: Peroxisome proliferator-activated receptor gamma (Homo sapiens) (UniProt P37231); assay: qHTS assay for small molecule agonists of peroxisome proliferator-activated receptor gamma signaling (AID 588536; active means well fitted curve in the direction sought with a large enough effect in the signal ratio, with a control signal flat, not every such curve was filed as active; inconclusive means small, poorly fitted or top-dose-only effect, or effect the other way, or a change in a side signal; inactive means no such curve, though single readings can be large or run the other way; the % refers to the signal ratio;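 further: 0% = DMSO basal wells and 100% = rosiglitazone at 2 µM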); conditions: HEK293 PPARg-UAS-bla, beta-lactamase ratio, 16 h; activation: at 76.7 µM (top of the series), percent of rosiglitazone response, DMSO as zero
Summary of the method: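 Beta-lactamase reporter read-out: CCF4 fluorescence (ex 405, em 460/530 nm) after 2 h at RT. HEK293 GeneBLAzer cells were treated for 16 h at 37 C. Hill fits gave EC50 and efficacy versus 2 uM rosiglitazone (100%) and DMSO (0%).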

[12] = biological target: Thyroid hormone receptor beta (Homo sapiens) (UniProt P10828); assay: qHTS assay for small molecule antagonists of thyroid hormone receptor beta signaling (AID 588547; active means well fitted inhibition curve with a large enough effect in the signal ratio, with a control signal flat, not every such curve was filed as active; inconclusive means small, poorly fitted or top-dose-only effect, or effect the other way, or a change in a side signal; the % refers to the signal ratio; further: potency means the concentration at half of the fitted maximal effect;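 on activity change % (negative = inhibition): cells stimulated with 0.4 nM T3 agonist during compound exposure; on the % scale 0 is the no-effect control and ±100 the full control effect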); conditions: TR-UAS-bla HEK293, beta-lactamase ratio, antagonist mode, 18 h
Summary of the method: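 TR-UAS-bla GripTite HEK293 cells in 2% charcoal/dextran FBS medium; compounds 0.59 nM to 92 uM with T3 at 0.4nM final, 18 h at 37 C. Beta-lactamase read by CCF4 fluorescence (460/530 nm); Hill fits gave IC50 and efficacy.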

[13] = qHTS assay for small molecule agonists of the antioxidant response element (ARE) signaling pathway (AID 651741; active means well fitted activation curve with a large enough effect in the signal ratio; inconclusive means small, poorly fitted or top-dose-only effect, or effect the other way, or a change in a side signal; the % refers to the signal ratio; further: potency means the concentration at half of the fitted maximal effect; on activation: % of control where 0% means no effect); conditions: HepG2 ARE-bla reporter, beta-lactamase FRET ratio, 16 h; activation: at 96 µM (top of the series) unless noted
Summary of the method: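 Stably integrated ARE-beta-lactamase reporter HepG2 cells; 16 h compound incubation, 37 C; LiveBLAzer FRET substrate 2 h at room temperature; fluorescence intensity.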

[14] = biological target: Bile acid receptor (Homo sapiens) (UniProt Q96RI1); assay: qHTS assay for small molecule antagonists of farnesoid X receptor signaling (AID 588526); conditions: HEK293T FXR-UAS-bla, beta-lactamase ratio, antagonist mode; activity change, negative = inhibition: at 76.7 µM (top of the series); further: potency means the concentration at half of the fitted maximal effect
Summary of the method: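 Antagonist mode: titrated compounds tested against chenodeoxycholic acid stimulation (normalized to 50 uM CDCA and DMSO) in GeneBLAzer HEK293T cells for 16 h. Beta-lactamase read by CCF4 fluorescence; IC50 from Hill fits.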

[15] = biological target: Peroxisome proliferator-activated receptor delta (Homo sapiens) (UniProt Q03181); assay: qHTS assay for small molecule agonists of peroxisome proliferator-activated receptor delta signaling (AID 588534); conditions: HEK293T PPARdelta-UAS-bla, beta-lactamase ratio, 18 h; activation: at 76.7 µM (top of the series) unless noted;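 further: 0% = DMSO basal wells and 100% = positive control agonist at 10 µM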
Summary of the method: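 Agonist-mode beta-lactamase reporter readout (CCF4 dye, 2 h at RT) after 18 h at 37 °C exposure to a titration; Hill-equation fitting gave EC50 and maximal response.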

[16] = qHTS assay for small molecule agonists of the antioxidant response element (ARE) signaling pathway measured by Nrf2-dependant transcriptional activity (AID 720636; active means well fitted curve in the direction sought with a large enough effect in the repeat runs; inconclusive means weak or mixed curves; inactive means no such curve, though single readings can be large; an effect the other way counts as inactive or inconclusive; further: potency means the concentration at half of the fitted maximal effect;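 on activation: HepG2 cells with an ARE-driven luciferase reporter; % of control where 0% means no effect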)
Summary of the method: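 Reporter gene assay, HepG2 ARE-luc: 16 hr compound, 37 C, 5% CO2; read-out luciferase luminescence.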

[17] = biological target: Peroxisome proliferator-activated receptor gamma (Homo sapiens) (UniProt P37231); assay: qHTS assay for small molecule antagonists of peroxisome proliferator-activated receptor gamma signaling (AID 588537; active means well fitted inhibition curve with a large enough effect in the signal ratio, with a control signal flat, not every such curve was filed as active; inconclusive means small, poorly fitted or top-dose-only effect, or effect the other way, or a change in a side signal; the % refers to the signal ratio;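 further: reporter cells co-stimulated with 50 nM rosiglitazone agonist during compound treatment; % of control where 0% means no effect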); conditions: HEK293 PPARg-UAS-bla, beta-lactamase ratio, antagonist mode; activity, negative = inhibition: at 76.8 µM (top of the series) unless noted
Summary of the method: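 Fluorescence at 460 and 530 nm (405 nm excitation) reported beta-lactamase cleavage of CCF4 after 2 h room-temperature loading. HEK293 reporter cells in 1% charcoal/dextran-treated FBS had received compound and rosiglitazone for 16 h.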

[18] = biological target: Peroxisome proliferator-activated receptor delta (Homo sapiens) (UniProt Q03181); assay: qHTS assay for small molecule antagonists of peroxisome proliferator-activated receptor delta signaling (AID 588535; active means well fitted inhibition curve with a large enough effect in the signal ratio, with a control signal flat, not every such curve was filed as active; inconclusive means small, poorly fitted or top-dose-only effect, or effect the other way, or a change in a side signal; inactive means no such curve, though single readings can be large or run the other way; the % refers to the signal ratio; further: potency means the concentration at half of the fitted maximal effect); conditions: HEK293T PPARd-UAS-bla, beta-lactamase FRET ratio, 18 h; activity change, negative = inhibition: at 76.7 µM (top of the series) unless noted
Summary of the method: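 Fluorescence from CCF4-loaded GeneBLAzer PPAR-delta-UAS-bla HEK293T cells (2 hrs RT loading) quantified reporter inhibition after an 18 hr, 37 C compound exposure across a titration.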

[19] = biological target: Retinoic acid receptor RXR-alpha (Homo sapiens) (UniProt P19793); assay: qHTS assay for small molecule antagonists of retinoid X receptor alpha signaling (AID 588546; active means well fitted inhibition curve with a large enough effect in the signal ratio, with a control signal flat, not every such curve was filed as active; inconclusive means small, poorly fitted or top-dose-only effect, or effect the other way, or a change in a side signal; inactive means no such curve, though single readings can be large or run the other way; the % refers to the signal ratio;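 further: cells stimulated with 9-cis-retinoic acid as agonist; on the % scale 0 is the no-effect control and ±100 the full control effect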); conditions: HEK293T RXRa-UAS-bla, beta-lactamase ratio, antagonist mode
Summary of the method: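 Beta-lactamase reporter inhibition, read as CCF4 fluorescence ratio (ex 405, em 460/530 nm) after 2 h at RT. HEK293T UAS-bla cells, 2500/well, were stimulated with 9-cis-RA at 500 or 100 nM final alongside test compound for 18 h at 37 C.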

[20] = Cellular Toxicity (caspase-3) Jurkat (AID 655; active means well fitted curve in the direction sought with a large enough effect; inconclusive means small, poorly fitted or top-dose-only effect, or another doubt; inactive means no such curve, though single readings can be large; an effect the other way counts as inactive or inconclusive;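 further: cells exposed to compound for 16 h at 37 °C before reading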); conditions: Jurkat caspase-3 activation, luminescence, DMSO = 0%, tamoxifen = 100%; at 92.2 µM (top of the series)
Summary of the method: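 Luminescent Caspase-Glo 3/7 read-out (20 min, room temperature) after 16 h compound treatment at 37 C of 5000 Jurkat cells per well. AC50 derived by Hill-equation fitting, scaled between DMSO basal and 100 uM tamoxifen stimulation.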

Cc1cc(C)cc(N)c1
inactive: Potency [3] | Potency [4]
inconclusive: Potency [1] 39.8 µM [cytotoxic, partial curve, poor fit] | activity change, negative = inhibition [2] 57.1% | activation [5] 7.44% | Potency [6] 59.6 µM [rising, partial curve, poor fit]

NC(=O)c1cccc([N+](=O)[O-])c1
inconclusive: activity change, negative = inhibition [2] -33.3% | Potency [10] 39.8 µM [side channel, falling, partial curve, poor fit] | activation [13] 9.05%
inactive: Potency [7] | Potency [8] | Potency [9] | Potency [11] | activity change % (negative = inhibition) [12] 12.3% | Potency [6]

Cc1ccc(C(=O)c2ccccc2)cc1
inactive: Potency [2] | Potency [14] | Potency [15]
inconclusive: Potency [16] 1.54 µM [activator, full curve, poor fit]

CC(C)=CCC/C(C)=C\CO
inconclusive: Potency [14] 0.0035 µM [side channel, falling, full curve, poor fit]
inactive: Potency [2] | Potency [17] | Potency [13] | Potency [16]

CC(=O)CC(=O)Nc1ccc(C)cc1C
inconclusive: Potency [18] 44.7 µM [side channel, rising, single point] | Potency [4] 11.2 µM [side channel, rising, partial curve, poor fit] | max response [19] -38.5% | Potency [12] 0.0126 µM [side channel, falling, full curve, poor fit]
inactive: Potency [2] | activation [10] 7.78% | Potency [11] | Potency [17]

CCCCCCCC[Si](Cl)(Cl)Cl
inactive: Potency [2] | activation [10] -0.511% | Potency [17]
inconclusive: Potency [13] 38.6 µM [inhibitor, partial curve, poor fit]

CNc1nc(=O)n(C2CCCCC2)c(=O)n1C
inactive: Potency [2] | Potency [13]
inconclusive: activation [11] 9.77% | activity change % (negative = inhibition) [12] -0.0093%

CC(=O)c1cc(C)oc1C
inconclusive: activity change, negative = inhibition [2] -26.3% | Potency [10] 12.6 µM [side channel, falling, full curve, poor fit] | activity, negative = inhibition [17] 3.68% | activation [5] -2.4%
inactive: caspase-3 activation [20] 0.691% | Potency [18] | Potency [13] | Potency [16]
